The list shows a part of the results.

Amino acid sequences for entries named in this document (tags omitted).
UniProt Q0JBA9, entry or part of it: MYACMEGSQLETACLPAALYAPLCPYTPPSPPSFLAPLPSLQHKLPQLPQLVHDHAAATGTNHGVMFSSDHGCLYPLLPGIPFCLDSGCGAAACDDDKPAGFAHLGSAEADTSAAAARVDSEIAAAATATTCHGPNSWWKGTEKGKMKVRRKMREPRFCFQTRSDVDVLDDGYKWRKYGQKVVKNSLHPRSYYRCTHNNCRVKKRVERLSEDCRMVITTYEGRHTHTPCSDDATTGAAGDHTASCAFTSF

For this assay, the target named is OsWRKY34 (Oryza sativa, UniProt Q0JBA9 1-250). As to the kind of experiment: protein-binding microarray (RPBM); PBS, 2% BSA, 51.3 ng/ul salmon testes DNA, 50 uM zinc acetate, 200 nM TF, 25 C, 1 h; high values mean tight binding. To be noted: protein: recombinant; tags: N-terminal polyhistidine and DsRed monomer fusion (pET32a); label: CyDye5-dUTP incorporated in the synthesized complementary strand; 3' TTTTT single-stranded linker to array surface; dsDNA, one strand shown. In short, it runs like this:
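An Axon 4000B scanner gave the binding signal as per-feature fluorescence intensity in arbitrary units. This followed washing of a custom Agilent array that had been incubated for 1 h at 25 °C with 200 nM protein in PBS, 2% BSA, salmon testes DNA and 50 µM zinc acetate. The proteins were transcription factors fused at the N-terminus to polyhistidine and DsRed, expressed in E. coli BL21-CodonPlus and purified on Ni–NTA.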
As for “TCACTGTCACACATGATGACCCCGCTCACATCATCACTTACGGAGTCACCTAGTGCAG”, the binding signal is 8310 fluorescence intensity (a.u.).

Turning to “TATCCAGCTAATCTCTCTCCTCATGCCATCTCTATATAAACGGAGTCACCTAGTGCAG”, the binding signal was 8290 fluorescence intensity (a.u.).

In the case of “AATGGCATATACTACTGTTTAGTACCTTCCAAGGATCATGCGGAGTCACCTAGTGCAG”, the binding signal was 8040 fluorescence intensity (a.u.).

For “ACTATTTTATTTCCCATTGACAGATTATACAGTGACATGCCGGAGTCACCTAGTGCAG”, the binding signal was 8050 fluorescence intensity (a.u.).

With “CTTATTCCATCTTGCACTTTCTCATTGTTGAACATGCTGACGGAGTCACCTAGTGCAG”, the binding signal is 8500 fluorescence intensity (a.u.).

Consider “TTACACTGTTACCGTTCGTTCTTCGTTTTGTCAATCGCAACGGAGTCACCTAGTGCAG”, for which the binding signal is 12300 fluorescence intensity (a.u.).

Consider “ATTGCTGCTACTTGAGGTCAAGCCCGTTCGTTCGCGCGCGCGGAGTCACCTAGTGCAG”, for which the binding signal was 8050 fluorescence intensity (a.u.).

Regarding “TCTGTCGCTATGTAGGATTTGTATGTGTGTCCAAATATATCGGAGTCACCTAGTGCAG”, the binding signal is 11000 fluorescence intensity (a.u.).

Turning to “TGCGTGGTGTTGCTTTTTTGGATCTGGTGTGTTAATTTGGCGGAGTCACCTAGTGCAG”, the binding signal was 9790 fluorescence intensity (a.u.).

As to “CATCTCTACTTCATTTCTCTCGTGTTATTGGCCTCCTCCGCGGAGTCACCTAGTGCAG”, the binding signal is 10500 fluorescence intensity (a.u.).

On to “GTTTAATTTTTTCACTTTATATTTTCATCAGTCTATAAAACGGAGTCACCTAGTGCAG”, for which the binding signal was 9650 fluorescence intensity (a.u.).

Regarding “ATATCGCTGTCCACTTCCAACCTTTCGTTCTGTATGTTAGCGGAGTCACCTAGTGCAG”, the binding signal is 12500 fluorescence intensity (a.u.).

Consider “GGCTCTTGTACGGACCACCATTATCATTTGTTATCATTGACGGAGTCACCTAGTGCAG”, for which the binding signal is 10200 fluorescence intensity (a.u.).

As for “GTCTTGTCTTCATTGTTCTTCAGGGAGGGTTCGTCAGCCTCGGAGTCACCTAGTGCAG”, the binding signal is 11000 fluorescence intensity (a.u.).

For “ACACCGCTGCCTGCATACTCCTCTGATCAATCTCTCTAGTCGGAGTCACCTAGTGCAG”, the binding signal was 10600 fluorescence intensity (a.u.).

In the case of “CCCTTTGTTACCACCAACTCATCAGCACCATATGTGGTAACGGAGTCACCTAGTGCAG”, the binding signal is 8490 fluorescence intensity (a.u.).

For “GATTTTTTTTTGGCGCGCATTCCAACCAAACGCCGCCCTCCGGAGTCACCTAGTGCAG”, the binding signal is 10100 fluorescence intensity (a.u.).

For the sequence “AAGAAGCGGTCCTAGTCGCCCGCCGCCGCTCGCCCACTCGCGGAGTCACCTAGTGCAG”, the binding signal was 8600 fluorescence intensity (a.u.).

On to “GTGTATCGCCATTTCGCCCAGCTTCCCGGCCTTCCTTGTCCGGAGTCACCTAGTGCAG”, for which the binding signal was 12000 fluorescence intensity (a.u.).

Take “CACTCCACTGCAACCGTGCAACGCTGACACTCACTTTTAACGGAGTCACCTAGTGCAG”: the binding signal is 11800 fluorescence intensity (a.u.).

“GCACCAAACCGAACCGCCGTTTCTCGCGTCTCGCCCTCTCCGGAGTCACCTAGTGCAG”: the binding signal is 12700 fluorescence intensity (a.u.).

Take “GATTTCCTTTTGGTTCTTATTGCATTTTTCTAAATTGGAGCGGAGTCACCTAGTGCAG”: the binding signal is 8500 fluorescence intensity (a.u.).

For “CGTTATTAAAATTTGGCATTGCGGTTGACTTAATAGAGGGCGGAGTCACCTAGTGCAG”, the binding signal was 8370 fluorescence intensity (a.u.).

With “TGTCCCCTTTTGTACTGATCCAACTCAAATGCTTTAACAACGGAGTCACCTAGTGCAG”, the binding signal is 8940 fluorescence intensity (a.u.).

For the sequence “AACATGAGGCATCTTCCTTCTTGCAGGTTCATCACCTATACGGAGTCACCTAGTGCAG”, the binding signal is 8850 fluorescence intensity (a.u.).

For “ATATTAATTTTACATGATTGATCTTATTTTTTTGCTATTACGGAGTCACCTAGTGCAG”, the binding signal is 9140 fluorescence intensity (a.u.).

For “CCAATTGCTTACGTACGACTACTCCTCCACGCCCCAAATCCGGAGTCACCTAGTGCAG”, the binding signal is 9670 fluorescence intensity (a.u.).

“AGATGACCTGTGATGTATTTAATTTGTGTGTAATTTTTTACGGAGTCACCTAGTGCAG”: the binding signal was 10600 fluorescence intensity (a.u.).

Consider “CATCGGAAAATAATGTGTACTCTAGTCTTGTTGGGTTTGGCGGAGTCACCTAGTGCAG”, for which the binding signal was 8530 fluorescence intensity (a.u.).

For the sequence “ATTCAACACTTTTAAAATATTTTGATTGCGGTTTCTTTTACGGAGTCACCTAGTGCAG”, the binding signal is 9530 fluorescence intensity (a.u.).

Regarding “TGTACTGTAGGGGTGGGATTGTGATTGGAAAATGAATGAACGGAGTCACCTAGTGCAG”, the binding signal is 18600 fluorescence intensity (a.u.).

Turning to “GTTCATATTTGACTTGCGGGTTTGATCGCTTACGTTTGCGCGGAGTCACCTAGTGCAG”, the binding signal was 8060 fluorescence intensity (a.u.).

As for “CGTTGGCTCGATTCGCCATTAATTACTATTGCGATCTTTACGGAGTCACCTAGTGCAG”, the binding signal is 8580 fluorescence intensity (a.u.).

Take “TACTATCACACCACGCGTCTACGTATGATCCTACTGCTTACGGAGTCACCTAGTGCAG”: the binding signal is 9190 fluorescence intensity (a.u.).

For the sequence “CATCCCTAGTCGGCGTCTTGTCATCGCCGCCCCAATCTCGCGGAGTCACCTAGTGCAG”, the binding signal was 8260 fluorescence intensity (a.u.).

In the case of “TTCTGTGCCTGCTCAAGCTCCTGTGCCTAATCCTGCCAGTCGGAGTCACCTAGTGCAG”, the binding signal was 9200 fluorescence intensity (a.u.).

Consider “GGTATATATATTATTTTTCCTTTTAACTTTCCATCGCCAACGGAGTCACCTAGTGCAG”, for which the binding signal was 8710 fluorescence intensity (a.u.).

In the case of “CGTCTCCGGCCCCTCCGCCGCCGTCGACCGGTCAGATCTCCGGAGTCACCTAGTGCAG”, the binding signal was 9030 fluorescence intensity (a.u.).

For “CTGCATTCTCTTCATTCACTCACTCACTCATACTCATACACGGAGTCACCTAGTGCAG”, the binding signal is 9230 fluorescence intensity (a.u.).

As for “ACACGCACACTTCAGCTCTCGTCGTCATACATCTGCTAGTCGGAGTCACCTAGTGCAG”, the binding signal was 10200 fluorescence intensity (a.u.).

On to “TCAGAGCCCATCACTCTCTCCCTTTCTCTCTGAAAACTCTCGGAGTCACCTAGTGCAG”, for which the binding signal was 8080 fluorescence intensity (a.u.).

Consider “GCCACGATAGCAATGGGGCGGGCGAGAATATATAAATATTCGGAGTCACCTAGTGCAG”, for which the binding signal was 8710 fluorescence intensity (a.u.).

These data come from article PMC7819943, “Rice protein-binding microarrays: a tool to detect cis-acting elements near promoter regions in rice”.
